Results are given in words; binding and its absence hold for the method and conditions named. Binding seen in cells or lysates may run through a third protein. Some binding calls cover weakened binding; strength is not graded here. For part of these data: Sequences can lack the tags named with a protein.
T1: LKB1-Flag (Liver kinase B1, Flag-tagged, wild type) (UniProt Q15831)
T1 sequence: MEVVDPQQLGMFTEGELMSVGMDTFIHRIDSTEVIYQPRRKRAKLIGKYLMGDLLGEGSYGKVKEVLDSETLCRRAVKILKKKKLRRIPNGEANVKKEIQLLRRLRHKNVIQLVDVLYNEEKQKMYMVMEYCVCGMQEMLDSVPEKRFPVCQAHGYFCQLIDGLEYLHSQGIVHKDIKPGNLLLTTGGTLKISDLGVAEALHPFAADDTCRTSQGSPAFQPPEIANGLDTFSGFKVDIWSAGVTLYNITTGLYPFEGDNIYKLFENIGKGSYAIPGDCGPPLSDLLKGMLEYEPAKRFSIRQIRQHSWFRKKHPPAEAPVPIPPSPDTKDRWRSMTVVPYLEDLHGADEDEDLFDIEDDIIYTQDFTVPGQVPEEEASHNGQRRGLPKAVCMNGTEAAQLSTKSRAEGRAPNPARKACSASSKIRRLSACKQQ

T2: endogenous LKB1 (NCI-H1299 cells) (human (endogenous in NCI-H1299)) (UniProt Q15831)
T2 sequence: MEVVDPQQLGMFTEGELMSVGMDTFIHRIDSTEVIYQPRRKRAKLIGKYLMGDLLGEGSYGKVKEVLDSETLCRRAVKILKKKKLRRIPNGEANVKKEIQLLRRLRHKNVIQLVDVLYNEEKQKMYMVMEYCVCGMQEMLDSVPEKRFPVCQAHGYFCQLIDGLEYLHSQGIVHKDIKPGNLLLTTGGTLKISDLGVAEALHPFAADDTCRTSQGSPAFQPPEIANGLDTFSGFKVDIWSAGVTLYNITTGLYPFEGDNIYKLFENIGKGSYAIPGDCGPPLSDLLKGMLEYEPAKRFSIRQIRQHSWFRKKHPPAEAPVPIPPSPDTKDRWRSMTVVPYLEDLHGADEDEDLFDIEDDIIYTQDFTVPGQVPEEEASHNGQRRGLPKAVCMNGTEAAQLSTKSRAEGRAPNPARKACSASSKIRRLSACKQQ


How the values were obtained:
[1] = biological target: T1, LKB1-Flag (Liver kinase B1, Flag-tagged, wild type); assay: co-IP; IPs by Flag beads from 293FT cells transfected with vector or JOSD2-HA along with vector or LKB1-Flag for 48 h, immunoblot
[2] = biological target: T1, LKB1-Flag (Liver kinase B1, Flag-tagged, wild type); assay: co-IP; 293T cells transfected with LKB1-Flag and JOSD2-HA for 48 h, nucleoplasmic separation, IPs from cytoplasmic and nuclear fractions
[3] = biological target: T2, endogenous LKB1 (NCI-H1299 cells) (human (endogenous in NCI-H1299)); assay: co-IP; endogenous proteins; IPs by control IgG or anti-LKB1 antibody from NCI-H1299 cells, immunoblot

Row | Binder | binding [1] | binding [2] | binding [3]
1 | JOSD2-HA (Josephin Domain-containing protein 2, HA-tagged) (enzyme, UniProt Q8TAC2 1-188) MSQAPGAQPSPPTVYHERQRLELCAVHALNNVLQQQLFSQEAADEICKRLAPDSRLNPHRSLLGTGNYDVNVIMAALQGLGLAAVWWDRRRPLSQLALPQVLGLILNLPSPVSLGLLSLPLRRRHWVALRQVDGVYYNLDSKLRAPEALGDEDGVRAFLAAALAQGLCEVLLVVTKEVEEKGSWLRTD | binds | binds | 
2 | endogenous JOSD2 (NCI-H1299 cells) (enzyme, UniProt Q8TAC2 1-188) MSQAPGAQPSPPTVYHERQRLELCAVHALNNVLQQQLFSQEAADEICKRLAPDSRLNPHRSLLGTGNYDVNVIMAALQGLGLAAVWWDRRRPLSQLALPQVLGLILNLPSPVSLGLLSLPLRRRHWVALRQVDGVYYNLDSKLRAPEALGDEDGVRAFLAAALAQGLCEVLLVVTKEVEEKGSWLRTD |  |  | binds

Source: paper PMC10766984, “Josephin domain containing 2 (JOSD2) promotes lung cancer by inhibiting LKB1 (Liver kinase B1) activity” (Signal Transduction and Targeted Therapy, 2024)
